Assay results as given in patent US12194027B2, “Small molecule inhibitors of GPCR GPR68 and related receptors for treating cancer, glioblastoma, and other indications” (UNIVERSITY OF MARYLAND, BALTIMORE, priority 2019, dated 2025).
For at least one compound, name, drawing or mass did not settle the structure.

Test system: zebrafish embryo
Assay: zebrafish embryo phenotype (pigmentation, morphology)
Assay type: in vivo
Conditions: zebrafish phenotype induced, Y or N

`Cc1noc(-c2ccc(CSCCC(=O)O)cc2)c1NC(=O)OC(C)c1ccccc1Cl` (stereo not shown) [LPAi, reference compound] was tested, and the Phenotype was “N”.
